The other results are listed elsewhere or left out.
Experiments:
Assay in all cases: glycan array binding signal (z-score within array); higher = stronger binding
Details in all cases: glycan notation: IUPAC condensed, linker removed
Glc(b1-4)Glc = molecular target: Glc(b1-4)Glc
Method in brief: (§1)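 The Consortium for Functional Glycomics database supplied 3228 glycan arrays, of which those lacking an available protein sequence were dropped. The binding signal, a within-array Z-score, was averaged across arrays of the same protein sequence and across linkers. Negative scores can be read as non-binding.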

Glc(b1-6)Glc = molecular target: Glc(b1-6)Glc
Method in brief: as §1

GlcA(b1-3)Gal = molecular target: GlcA(b1-3)Gal
Method in brief: as §1

GlcA(b1-3)GlcNAc = molecular target: GlcA(b1-3)GlcNAc
Method in brief: as §1

GlcA(b1-6)Gal = molecular target: GlcA(b1-6)Gal
Method in brief: as §1

[1] = molecular target: GlcA3S(b1-3)Gal(b1-4)GlcNAc(b1-2)Man
Method in brief: as §1

[2] = molecular target: GlcA3S(b1-3)Gal(b1-4)GlcNAc(b1-3)Gal(b1-4)Glc
Method in brief: as §1

[3] = molecular target: GlcNAc(a1-3)Gal(b1-4)GlcNAc
Method in brief: as §1

[4] = molecular target: GlcNAc(a1-4)Gal(b1-3)GlcNAc
Method in brief: as §1

[5] = molecular target: GlcNAc(a1-4)Gal(b1-4)GalNAc
Method in brief: as §1

[6] = molecular target: GlcNAc(a1-4)Gal(b1-4)GlcNAc
Method in brief: as §1

[7] = molecular target: GlcNAc(a1-4)Gal(b1-4)GlcNAc(b1-3)Gal(b1-4)Glc
Method in brief: as §1

[8] = molecular target: GlcNAc(a1-4)Gal(b1-4)GlcNAc(b1-3)Gal(b1-4)GlcNAc
Method in brief: as §1

[9] = molecular target: GlcNAc(a1-4)Gal(b1-4)GlcNAc(b1-3)Gal(b1-4)GlcNAc(b1-3)Gal(b1-4)GlcNAc
Method in brief: as §1

[10] = molecular target: GlcNAc(a1-4)Gal(b1-4)GlcNAc(b1-3)Gal(b1-4)[Fuc(a1-3)]GlcNAc(b1-3)Gal(b1-4)[Fuc(a1-3)]GlcNAc
Method in brief: as §1

[11] = molecular target: GlcNAc(a1-6)Gal(b1-4)GlcNAc
Method in brief: as §1

[12] = molecular target: GlcNAc(b1-2)Gal(b1-3)GalNAc
Method in brief: as §1

[13] = molecular target: GlcNAc(b1-2)Man(a1-3)[GlcNAc(b1-2)Man(a1-6)]Man(b1-4)GlcNAc(b1-4)GlcNAc
Method in brief: as §1

[14] = molecular target: GlcNAc(b1-2)Man(a1-3)[GlcNAc(b1-2)Man(a1-6)]Man(b1-4)GlcNAc(b1-4)[Fuc(a1-6)]GlcNAc
Method in brief: as §1

[15] = molecular target: GlcNAc(b1-2)Man(a1-3)[GlcNAc(b1-4)][GlcNAc(b1-2)Man(a1-6)]Man(b1-4)GlcNAc(b1-4)GlcNAc
Method in brief: as §1

[16] = molecular target: GlcNAc(b1-2)Man(a1-3)[GlcNAc(b1-4)][GlcNAc(b1-2)Man(a1-6)]Man(b1-4)GlcNAc(b1-4)[Fuc(a1-6)]GlcNAc
Method in brief: as §1

[17] = molecular target: GlcNAc(b1-2)[GlcNAc(b1-4)]Man(a1-3)[GlcNAc(b1-2)Man(a1-6)]Man(b1-4)GlcNAc(b1-4)GlcNAc
Method in brief: as §1

[18] = molecular target: GlcNAc(b1-2)[GlcNAc(b1-4)]Man(a1-3)[GlcNAc(b1-4)][GlcNAc(b1-2)Man(a1-6)]Man(b1-4)GlcNAc(b1-4)GlcNAc
Method in brief: as §1

[19] = molecular target: GlcNAc(b1-2)[GlcNAc(b1-4)]Man(a1-3)[GlcNAc(b1-4)][GlcNAc(b1-2)[GlcNAc(b1-6)]Man(a1-6)]Man(b1-4)GlcNAc(b1-4)GlcNAc
Method in brief: as §1

[20] = molecular target: GlcNAc(b1-2)[GlcNAc(b1-4)]Man(a1-3)[GlcNAc(b1-4)][GlcNAc(b1-2)[GlcNAc(b1-6)]Man(a1-6)]Man(b1-4)GlcNAc(b1-4)[Fuc(a1-6)]GlcNAc
Method in brief: as §1

[21] = molecular target: GlcNAc(b1-2)[GlcNAc(b1-6)]Man(a1-6)[GlcNAc(b1-2)Man(a1-3)]Man(b1-4)GlcNAc(b1-4)GlcNAc
Method in brief: as §1

[22] = molecular target: GlcNAc(b1-2)[GlcNAc(b1-6)]Man(a1-6)[GlcNAc(b1-2)Man(a1-3)]Man(b1-4)GlcNAc(b1-4)[Fuc(a1-6)]GlcNAc
Method in brief: as §1

[23] = molecular target: GlcNAc(b1-2)[GlcNAc(b1-6)]Man(a1-6)[GlcNAc(b1-4)][GlcNAc(b1-2)Man(a1-3)]Man(b1-4)GlcNAc(b1-4)GlcNAc
Method in brief: as §1

GlcNAc(b1-3)Fuc = molecular target: GlcNAc(b1-3)Fuc
Method in brief: as §1

GlcNAc(b1-3)Gal = molecular target: GlcNAc(b1-3)Gal
Method in brief: as §1

[24] = molecular target: GlcNAc(b1-3)Gal(b1-3)GalNAc
Method in brief: as §1

GlcNAc(b1-3)Gal(b1-4)Glc = molecular target: GlcNAc(b1-3)Gal(b1-4)Glc
Method in brief: as §1

[25] = molecular target: GlcNAc(b1-3)Gal(b1-4)GlcNAc
Method in brief: as §1

[26] = molecular target: GlcNAc(b1-3)Gal(b1-4)GlcNAc(b1-2)Man(a1-3)[GlcNAc(b1-3)Gal(b1-4)GlcNAc(b1-2)Man(a1-6)]Man(b1-4)GlcNAc(b1-4)GlcNAc
Method in brief: as §1

[27] = molecular target: GlcNAc(b1-3)Gal(b1-4)GlcNAc(b1-2)Man(a1-3)[GlcNAc(b1-3)Gal(b1-4)GlcNAc(b1-2)Man(a1-6)]Man(b1-4)GlcNAc(b1-4)[Fuc(a1-6)]GlcNAc
Method in brief: as §1

[28] = molecular target: GlcNAc(b1-3)Gal(b1-4)GlcNAc(b1-2)[GlcNAc(b1-3)Gal(b1-4)GlcNAc(b1-6)]Man(a1-6)[GlcNAc(b1-3)Gal(b1-4)GlcNAc(b1-2)Man(a1-3)]Man(b1-4)GlcNAc(b1-4)GlcNAc
Method in brief: as §1

[29] = molecular target: GlcNAc(b1-3)Gal(b1-4)GlcNAc(b1-3)Gal(b1-4)GlcNAc
Method in brief: as §1

[30] = molecular target: GlcNAc(b1-3)Gal(b1-4)GlcNAc(b1-3)Gal(b1-4)GlcNAc(b1-2)Man(a1-3)[GlcNAc(b1-3)Gal(b1-4)GlcNAc(b1-3)Gal(b1-4)GlcNAc(b1-2)Man(a1-6)]Man(b1-4)GlcNAc(b1-4)GlcNAc
Method in brief: as §1

[31] = molecular target: GlcNAc(b1-3)Gal(b1-4)GlcNAc(b1-3)Gal(b1-4)GlcNAc(b1-2)Man(a1-3)[GlcNAc(b1-3)Gal(b1-4)GlcNAc(b1-3)Gal(b1-4)GlcNAc(b1-2)Man(a1-6)]Man(b1-4)GlcNAc(b1-4)[Fuc(a1-6)]GlcNAc
Method in brief: as §1

[32] = molecular target: GlcNAc(b1-3)Gal(b1-4)GlcNAc(b1-3)Gal(b1-4)GlcNAc(b1-2)[GlcNAc(b1-3)Gal(b1-4)GlcNAc(b1-3)Gal(b1-4)GlcNAc(b1-6)]Man(a1-6)[GlcNAc(b1-3)Gal(b1-4)GlcNAc(b1-3)Gal(b1-4)GlcNAc(b1-2)Man(a1-3)]Man(b1-4)GlcNAc(b1-4)[Fuc(a1-6)]GlcNAc
Method in brief: as §1

[33] = molecular target: GlcNAc(b1-3)Gal(b1-4)GlcNAc(b1-3)Gal(b1-4)GlcNAc(b1-3)Gal(b1-4)GlcNAc(b1-2)Man(a1-3)[GlcNAc(b1-3)Gal(b1-4)GlcNAc(b1-3)Gal(b1-4)GlcNAc(b1-3)Gal(b1-4)GlcNAc(b1-2)Man(a1-6)]Man(b1-4)GlcNAc(b1-4)GlcNAc
Method in brief: as §1

[34] = molecular target: GlcNAc(b1-3)Gal(b1-4)GlcNAc(b1-3)Gal(b1-4)GlcNAc(b1-3)Gal(b1-4)GlcNAc(b1-2)Man(a1-3)[GlcNAc(b1-3)Gal(b1-4)GlcNAc(b1-3)Gal(b1-4)GlcNAc(b1-3)Gal(b1-4)GlcNAc(b1-2)Man(a1-6)]Man(b1-4)GlcNAc(b1-4)[Fuc(a1-6)]GlcNAc
Method in brief: as §1

[35] = molecular target: GlcNAc(b1-3)Gal(b1-4)GlcNAc(b1-3)Gal(b1-4)GlcNAc(b1-3)Gal(b1-4)GlcNAc(b1-2)[GlcNAc(b1-3)Gal(b1-4)GlcNAc(b1-3)Gal(b1-4)GlcNAc(b1-3)Gal(b1-4)GlcNAc(b1-6)]Man(a1-6)[GlcNAc(b1-3)Gal(b1-4)GlcNAc(b1-3)Gal(b1-4)GlcNAc(b1-3)Gal(b1-4)GlcNAc(b1-2)Man(a1-3)]Man(b1-4)GlcNAc(b1-4)[Fuc(a1-6)]GlcNAc
Method in brief: as §1

[36] = molecular target: GlcNAc(b1-3)Gal(b1-4)GlcNAc(b1-3)Gal(b1-4)GlcNAc(b1-3)Gal(b1-4)GlcNAc(b1-3)Gal(b1-4)GlcNAc(b1-2)Man(a1-3)[GlcNAc(b1-3)Gal(b1-4)GlcNAc(b1-3)Gal(b1-4)GlcNAc(b1-3)Gal(b1-4)GlcNAc(b1-3)Gal(b1-4)GlcNAc(b1-2)Man(a1-6)]Man(b1-4)GlcNAc(b1-4)GlcNAc
Method in brief: as §1

[37] = molecular target: GlcNAc(b1-3)Gal(b1-4)GlcNAc(b1-3)Gal(b1-4)GlcNAc(b1-3)Gal(b1-4)GlcNAc(b1-3)Gal(b1-4)GlcNAc(b1-2)Man(a1-3)[GlcNAc(b1-3)Gal(b1-4)GlcNAc(b1-3)Gal(b1-4)GlcNAc(b1-3)Gal(b1-4)GlcNAc(b1-3)Gal(b1-4)GlcNAc(b1-2)Man(a1-6)]Man(b1-4)GlcNAc(b1-4)[Fuc(a1-6)]GlcNAc
Method in brief: as §1

B1: FGF1 (Homo sapiens), P05230 (protein)
chain: MAEGEITTFTALTEKFNLPPGNYKKPKLLYSNGGHFLRILPDGTVDGTRDRSDQHIQLQLSAESVGEVYIKSTETGQYLAMTDGLLYGSQTPNEECLFLERLEENHYNTYISKHAEKNWFVGLKKNGSCKRGPRTHYGQAILFLPLPASSED
Glc(b1-4)Glc
  glycan array binding signal (z-score): 0.606
Glc(b1-6)Glc
  glycan array binding signal (z-score): 0.554
GlcA(b1-3)Gal
  glycan array binding signal (z-score): 0.241
GlcA(b1-3)GlcNAc
  glycan array binding signal (z-score): 0.105
GlcA(b1-6)Gal
  glycan array binding signal (z-score): 1.29
[1]
  glycan array binding signal (z-score): -0.693
[2]
  glycan array binding signal (z-score): -0.775
[3]
  glycan array binding signal (z-score): -0.427
[4]
  glycan array binding signal (z-score): -0.431
[5]
  glycan array binding signal (z-score): 0.705
[6]
  glycan array binding signal (z-score): -0.259
[7]
  glycan array binding signal (z-score): -0.392
[8]
  glycan array binding signal (z-score): -0.122
[9]
  glycan array binding signal (z-score): -0.907
[10]
  glycan array binding signal (z-score): 1.24
[11]
  glycan array binding signal (z-score): -0.134
[12]
  glycan array binding signal (z-score): 0.748
[13]
  glycan array binding signal (z-score): -0.063
[14]
  glycan array binding signal (z-score): 0.043
[15]
  glycan array binding signal (z-score): -0.529
[16]
  glycan array binding signal (z-score): -0.72
[17]
  glycan array binding signal (z-score): -0.865
[18]
  glycan array binding signal (z-score): -0.851
[19]
  glycan array binding signal (z-score): -0.751
[20]
  glycan array binding signal (z-score): -0.879
[21]
  glycan array binding signal (z-score): -0.943
[22]
  glycan array binding signal (z-score): 0.145
[23]
  glycan array binding signal (z-score): -0.832
GlcNAc(b1-3)Fuc
  glycan array binding signal (z-score): 0.25
GlcNAc(b1-3)Gal
  glycan array binding signal (z-score): -0.782
[24]
  glycan array binding signal (z-score): -0.627
GlcNAc(b1-3)Gal(b1-4)Glc
  glycan array binding signal (z-score): -0.813
[25]
  glycan array binding signal (z-score): -0.815
[26]
  glycan array binding signal (z-score): -0.363
[27]
  glycan array binding signal (z-score): 0.998
[28]
  glycan array binding signal (z-score): 1.91
[29]
  glycan array binding signal (z-score): -1.16
[30]
  glycan array binding signal (z-score): 0.296
[31]
  glycan array binding signal (z-score): -0.417
[32]
  glycan array binding signal (z-score): 0.236
[33]
  glycan array binding signal (z-score): -0.668
[34]
  glycan array binding signal (z-score): 1.12
[35]
  glycan array binding signal (z-score): -0.625
[36]
  glycan array binding signal (z-score): -0.577
[37]
  glycan array binding signal (z-score): -0.504

Source: the supplement of paper PMC8728848
